In patent publication US12714102B2, “Use of diaminomethanal carboxylic acid complexes as agricultural spray adjuvants” (priority 2021, dated 2026):

Legend:
Format in all cases: physicochemical
[1] = Immersion corrosion testing of metals (modified ASTM G 31-72); details: Stainless Steel 304; 85% by weight in water, no corrosion inhibitor, 45-46° C., 168 hours
[2] = as above; details: Aluminum; 85% by weight in water, no corrosion inhibitor, 45-46° C., 168 hours
[3] = as above; details: Mild Steel C1020; 85% by weight in water, no corrosion inhibitor, 45-46° C., 168 hours

Molecule | Corrosion Rate [1] [in/yr] | Corrosion Rate [2] [in/yr] | Corrosion Rate [3] [in/yr]
NC(N)=O.O=S(=O)(O)O [AMADS, 1-aminomethanamide dihydrogen tetraoxosulfate] | 0.0090 | 0.1947 | 0.0078
diaminomethanalethanoate complexes [DAMALEX] | 0.0001 | 0.0041 | 0.1204
